Results deposited as PubChem BioAssay AID504784 (Drosophila RNAi Screening Center, 2011).
Test: 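Genome-wide knock-down for genes giving too much or too little stored lipid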 (primary screen). Cell system: Drosophila Kc167 embryonic cells. Reagents: long dsRNA against Drosophila genes, about 250 ng dsRNA per well. Duration: 4 days. Treatment: cells fed 400 µM oleic acid bound to BSA. Detection: 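Cells imaged and segmented; ratio of lipid droplet area to nuclear area, log-transformed, then normalised as a B-score over the screen; higher means more stored lipid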. Scale: droplet/nuclear area B-score: higher = more stored lipid (overstorage).
The deposit covers about 17,000 reagents; shown is an unselected part of those that have a named target and a result. 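Each column is one replicate's B-score; the combined score over replicates was not deposited, so single values may mislead.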 Further read-outs or replicates are left out here.

CG12268 [DRSC14491]
- droplet/nuclear area B-score, replicate 1: 0.937

acs (arcus) [DRSC08185]
- droplet/nuclear area B-score, replicate 1: -0.26

Ask1 (Apoptotic signal-regulating kinase 1) [DRSC16789]
- droplet/nuclear area B-score, replicate 1: 1.1

Ask1 (Apoptotic signal-regulating kinase 1) [DRSC21697]
- droplet/nuclear area B-score, replicate 1: -0.278

CR11235 (pseudo) [DRSC20480]
- droplet/nuclear area B-score, replicate 1: 1.53

spirit (Serine Protease Immune Response Integrator) [DRSC18202]
- droplet/nuclear area B-score, replicate 1: 0.55

Naglu (N-acetyl-alpha-glucosaminidase) [DRSC02267]
- droplet/nuclear area B-score, replicate 1: -2.05

Pur-alpha (Purine-rich binding protein-alpha) [DRSC17166]
- droplet/nuclear area B-score, replicate 1: 0.959

CG15005 [DRSC08459]
- droplet/nuclear area B-score, replicate 1: 1.16

CG5721 [DRSC06945]
- droplet/nuclear area B-score, replicate 1: -1.16

CG6403 [DRSC16033]
- droplet/nuclear area B-score, replicate 1: -0.347

meso18E [DRSC20351]
- droplet/nuclear area B-score, replicate 1: 1.6

CG34404 [DRSC15335]
- droplet/nuclear area B-score, replicate 1: 1.42

CG34404 [DRSC15978]
- droplet/nuclear area B-score, replicate 1: 0.943

Porin2 [DRSC02584]
- droplet/nuclear area B-score, replicate 1: 0.136

rt (rotated abdomen) [DRSC11391]
- droplet/nuclear area B-score, replicate 1: -0.331

Ilp6 (Insulin-like peptide 6) [DRSC17906]
- droplet/nuclear area B-score, replicate 1: 0.005

Pde11 (Phosphodiesterase 11) [DRSC02028]
- droplet/nuclear area B-score, replicate 1: -0.00721

Pde11 (Phosphodiesterase 11) [DRSC02460]
- droplet/nuclear area B-score, replicate 1: 0.0792

CG16953 [DRSC15167]
- droplet/nuclear area B-score, replicate 1: -0.269

CG11069 [DRSC14289]
- droplet/nuclear area B-score, replicate 1: -0.889

CG17712 [DRSC00266]
- droplet/nuclear area B-score, replicate 1: -1.2

Hem (HEM-protein) [DRSC11865]
- droplet/nuclear area B-score, replicate 1: 1.13

CG4594 [DRSC02762]
- droplet/nuclear area B-score, replicate 1: -0.0158

ATPsynD (ATP synthase, subunit D) [DRSC14093]
- droplet/nuclear area B-score, replicate 1: 3.01

CG16800 [DRSC02518]
- droplet/nuclear area B-score, replicate 1: -1.87

tHMG1 (testis-enriched HMG-box-containing protein 1) [DRSC16181]
- droplet/nuclear area B-score, replicate 1: -1.17

NLaz (Neural Lazarillo) [DRSC21521]
- droplet/nuclear area B-score, replicate 1: 0.766

Tcs5 (Threonyl-carbamoyl synthesis 5) [DRSC09774]
- droplet/nuclear area B-score, replicate 1: 1.44

CG2065 [DRSC06813]
- droplet/nuclear area B-score, replicate 1: -2.32

CG2065 [DRSC21328]
- droplet/nuclear area B-score, replicate 1: 0.482

CG34107 [DRSC14554]
- droplet/nuclear area B-score, replicate 1: -0.0111

Pnn (Pinin) [DRSC16415]
- droplet/nuclear area B-score, replicate 1: 1.04

ssp3 (short spindle 3) [DRSC02669]
- droplet/nuclear area B-score, replicate 1: -1.02

ssp3 (short spindle 3) [DRSC02670]
- droplet/nuclear area B-score, replicate 1: -0.553

CG14968 [DRSC08427]
- droplet/nuclear area B-score, replicate 1: 1.21

CG33301 [DRSC02778]
- droplet/nuclear area B-score, replicate 1: 0.561

CG33937 (retired record) [DRSC15148]
- droplet/nuclear area B-score, replicate 1: -0.876

CG16723 [DRSC15138]
- droplet/nuclear area B-score, replicate 1: 0.0117

sad (shadow) [DRSC16630]
- droplet/nuclear area B-score, replicate 1: 2.94

Entries listed so far whose gene name starts with S or s (4):
spirit (Serine Protease Immune Response Integrator) [DRSC18202]
- droplet/nuclear area B-score, replicate 1: 0.55

ssp3 (short spindle 3) [DRSC02669]
- droplet/nuclear area B-score, replicate 1: -1.02

ssp3 (short spindle 3) [DRSC02670]
- droplet/nuclear area B-score, replicate 1: -0.553

sad (shadow) [DRSC16630]
- droplet/nuclear area B-score, replicate 1: 2.94
